# Experimental data as given in patent US20100130476A1, “COMPOUNDS THAT INDUCE PANCREATIC BETA-CELL EXPANSION” (The Scripps Research Institute, priority 2008, published 2010).
# At least one compound was matched to its structure with a doubt left.
# Test system: growth-arrested R7T1 β cells
# Test: R7T1 β-cell proliferation, CellTiter Glo assay (high-throughput screen and follow-up)
# Format: cell-based, mouse
# Settings: for effect on growth-arrested R7T1 β cells (in words): CellTiter-Glo, 7 days
# Experimental: R7T1 β-cells are expanded in growth medium (DMEM with 15% horse serum and 2.5% FBS) in the presence of 10 μg/ml doxycycline. (3TC-tet cells are expanded in growth medium (DMEM with 15% horse serum and 2.5% FBS) in the absence of 10 μg/ml doxycycline. Hamster HIT-T15 β-cells are grown in F12 medium with 15% horse serum and 2.5% FBS. MIN6 cells are cultured in DMEM with 15% FBS. HEK293 cells are grown according to instructions from ATCC (http://www.atcc.org/).
# R7T1 β-cells are expanded in large quantities in growth medium in the presence of 10 μg/ml doxycycline and then are growth arrested by removal of doxycycline for one week. For the primary screen, growth-arrested cells are plated onto 384- or 1536-well plates in growth medium without doxycycline at a density of 4000 cells/well in 384-well plate or 1000 cells/well in 1536-well plate in an automated high-throughput screening platform (designated as Day 0). […] For data analysis, the median of a plate is calculated and the activity of each well is the signal/median of the plate. A signal in any well over 1.5 of the median is regarded as a primary hit. For the reconfirmation screen, growth-arrested R7T1 cells are plated onto 384-well plates and screened against all primary hits in quadruplicate. To eliminate tetracycline mimetics among all reconfirmed primary hits, βTC-tet cells are plated onto 384-well plates at a density of 2000 cells/well in growth medium in the presence of 10 μg/ml doxycycline, and 1.25 μM compound is added after overnight incubation and refreshed 4 days later. The effects on β-cell replication are then determined at Day 8 using the CellTiter Glo assay system. Any compound that increases the readings more than 1.5 fold is regarded as a hit. […]
smiles,measurement,setting,value
COCCOC(=O)C1=C(C)NC(C)=C(C(=O)OC(C)C)C1c1cccc([N+](=O)[O-])c1 (stereo not drawn) [Nimodipine],effect on the proliferative effect of 2a,"2a 1 μM, dose-dependent",blocked
same,effect on growth-arrested R7T1 β cells (in words),,cell death
same,effect on growth-arrested R7T1 β cells (in words),listed as nimodipine,β-cell death
